Assay results taken from PMC6687534.
Results are given in words; binding and its absence hold for the method and conditions named. In cells and extracts the contact can be indirect. Binding calls can cover weak binding; strength is not graded here.

The chains behind the UniProt entries cited, without tags or fusion partners.
UniProt Q9UKT9: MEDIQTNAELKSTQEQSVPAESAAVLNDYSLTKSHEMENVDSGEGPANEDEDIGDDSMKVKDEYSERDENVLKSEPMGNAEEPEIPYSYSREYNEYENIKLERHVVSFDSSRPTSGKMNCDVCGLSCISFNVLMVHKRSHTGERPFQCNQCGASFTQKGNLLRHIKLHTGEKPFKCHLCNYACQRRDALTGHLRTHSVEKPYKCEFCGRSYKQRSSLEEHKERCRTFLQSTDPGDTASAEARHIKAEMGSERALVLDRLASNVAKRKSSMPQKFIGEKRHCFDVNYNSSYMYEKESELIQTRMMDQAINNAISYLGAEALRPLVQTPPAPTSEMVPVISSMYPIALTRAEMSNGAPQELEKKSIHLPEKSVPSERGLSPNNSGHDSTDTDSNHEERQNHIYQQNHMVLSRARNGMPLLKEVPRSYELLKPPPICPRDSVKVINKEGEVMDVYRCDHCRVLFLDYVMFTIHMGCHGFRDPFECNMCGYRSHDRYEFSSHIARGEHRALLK

How the values were obtained:
[1] = target: FLAG-tagged RUNX1 with deletion of the AD (UniProt Q01196); experiment: co-IP; anti-FLAG gel on lysates of transfected HEK293T cells (in part stably expressing IKZF3 or IKZF1); NP-40 buffer, 4 °C overnight; immunoblot; in Fig. 4a-d cells treated with DMSO or increasing amounts (or 1 μM) of the RUNX inhibitor AI-10-104
[2] = target: FLAG-tagged RUNX1 with deletion of the ID (UniProt Q01196); experiment: as above

binding [1]: binds | binding [2]: binds
Substance: IKZF3 stably expressed in HEK293T cells (from UniProt Q9UKT9 1-509)
